{
  "sequences": {"note": "Protein sequences, listed by entry. Tags and fused reporters are not part of them. Lines headed by an entry give the natural chain unless they say otherwise; changes in a name come on top.", "UniProt Q06330": "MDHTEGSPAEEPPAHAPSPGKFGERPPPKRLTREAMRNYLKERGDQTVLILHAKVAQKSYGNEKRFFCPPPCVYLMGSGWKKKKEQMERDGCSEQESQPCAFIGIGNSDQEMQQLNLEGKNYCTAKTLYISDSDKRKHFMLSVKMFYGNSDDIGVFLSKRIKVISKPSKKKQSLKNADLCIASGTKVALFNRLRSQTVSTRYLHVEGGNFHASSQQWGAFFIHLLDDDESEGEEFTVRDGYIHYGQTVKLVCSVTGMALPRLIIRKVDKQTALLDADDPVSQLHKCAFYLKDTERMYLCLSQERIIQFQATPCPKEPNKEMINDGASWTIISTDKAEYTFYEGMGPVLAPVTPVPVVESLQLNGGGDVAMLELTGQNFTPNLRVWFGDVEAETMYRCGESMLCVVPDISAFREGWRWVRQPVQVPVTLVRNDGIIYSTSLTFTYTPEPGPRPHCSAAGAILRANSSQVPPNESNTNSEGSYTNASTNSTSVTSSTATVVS", "UniProt P12956": "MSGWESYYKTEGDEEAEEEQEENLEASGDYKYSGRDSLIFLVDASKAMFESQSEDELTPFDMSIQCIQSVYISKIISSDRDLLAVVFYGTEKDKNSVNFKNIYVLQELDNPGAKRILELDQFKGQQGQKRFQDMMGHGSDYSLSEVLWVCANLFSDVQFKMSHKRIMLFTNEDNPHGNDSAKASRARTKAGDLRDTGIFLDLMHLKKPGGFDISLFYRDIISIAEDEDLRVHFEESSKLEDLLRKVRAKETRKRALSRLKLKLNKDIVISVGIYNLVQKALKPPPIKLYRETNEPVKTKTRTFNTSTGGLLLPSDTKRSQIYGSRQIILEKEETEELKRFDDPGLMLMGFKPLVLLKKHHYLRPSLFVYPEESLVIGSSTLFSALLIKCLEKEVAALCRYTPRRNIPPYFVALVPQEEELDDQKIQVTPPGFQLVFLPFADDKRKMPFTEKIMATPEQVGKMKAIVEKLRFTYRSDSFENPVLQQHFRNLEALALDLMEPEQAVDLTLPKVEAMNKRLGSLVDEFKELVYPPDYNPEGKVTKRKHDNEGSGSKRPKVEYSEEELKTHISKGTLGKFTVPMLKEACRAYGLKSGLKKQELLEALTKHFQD"},
  "source": "paper PMC6715699",
  "biological_target": "FLAG-tagged CSL V237R (human) (UniProt Q06330)",
  "experiment": "co-IP; HEK293T cells expressing FLAG-tagged CSL FL, BTD or point mutants plus/minus FL UPF1 or FL Ku70; anti-FLAG M2 magnetic beads, immunoblotting",
  "note": "No constants are given. Whether binding was seen depends on the method and setting. Binding seen in cells or lysates may run through a third protein. A result given as binding can be weak or reduced; the word gives no strength.",
  "data": [
    {"substance": "MYC-tagged full length (FL) Ku70 (from UniProt P12956 1-609)", "values": [
      {"measurement": "binding", "result": "binds"}
    ]}
  ]
}
